Measurements from patent US20240092728A1, “HYDROXY-SUBSTITUTED SPHINGOLIPIDS” (Evonik Operations GmbH, priority 2021, published 2024).
At least one structure is not confirmed: it was looked up by name or label, or the drawing left a doubt. Some entries share one result that the patent states for a list of compounds.

How the values were obtained:
[1] = system: normal human epidermal keratinocytes (NHEK); experiment: ROS production after UV irradiation (2,7-DCDHF-DA fluorescence); format: cell-based; settings: 10 μM; 24 h preincubation; 100 mJ/cm^2 UVB+UVA
Description: The extent to which the substances of the invention are able to exert a protective effect on normal human epidermal keratinocytes (NHEK) exposed to UV irradiation was examined.
For this, corresponding investigations were carried out of biomarkers for reactive oxygen species (ROS), quantified with 2,7-dichlorodihydrofluorescein diacetate, and DNA damage and repair, quantified by the Comet assay.
The intracellular formation of reactive […] species (ROS) is inter alia a factor that leads to damage of cellular DNA by UV radiation.
96-well plates were seeded with keratinocytes, which were cultured for 24 hours in culture medium and then for a further 24 hours in assay medium. The medium was then replaced by a test medium containing the test compounds or the references (100 μM vitamin E and 10 μM EGCG) or in which they were absent (irradiated control) and the cells were preincubated for 24 hours. […]
The emitted intensity of fluorescence (ex=485 nm, em=538 nm) was measured using an EnVision® (Perkin Elmer) microplate reader.
The intensity of fluorescence of the metabolized sample (DCF) was proportional to the formation of ROS. ROS production was therefore expressed as the relative intensity of fluorescence.

sun-stressed skin = experiment: In-vivo study: density of the dermis by ultrasound on outside of forearm; parameters: species or system human; settings: 0.1% in formulation, after two weeks of use; compared with untreated control or vehicle
Description: For the in-vivo study, 24 test subjects (male and female) with sun-stressed skin were recruited. In order to ensure sun-stressed skin, this study was carried out in the period from September to November. […] The test subjects received either two different test formulations, which they applied to one forearm each, or one test formulation. which was applied to one forearm with the second forearm remaining untreated (control). The test formulations were a vehicle and a formulation containing 0.1% of hydroxybutyroyl phytosphingosine (hydroxybutyroyl PS). The various test combinations were assigned to the test subjects randomly. The test subjects applied the test formulations for a period of 8 weeks twice daily to the inside and outside of in each case one forearm. The following measurements on the forearms were carried out before the start of application and after two, four and eight weeks: • 1. Colour measurement: A colorimeter probe (Skin-Colorimeter CL 400, Courage & Khazaka, Cologne) was used to measure the parameters L* and ITA° on the outside of the forearm. […] Skin roughness: This parameter was determined by means of a special camera on the inside of the forearm (Visioscan VC 98, Courage & Khazaka). […] Density of the dermis: The density of the dermis was determined by ultrasound on the outside of the forearm (SkinLab Combo, Cortex Technologies, Denmark). […]

Compound | protective effect against the formation of ROS [1] | increase in skin density (sun-stressed skin)
O=C(O[C@@H]1Cc2c(O)cc(O)cc2O[C@@H]1c1cc(O)c(O)c(O)c1)c1cc(O)c(O)c(O)c1 [EGCG, epigallocatechin gallate] | 30-40% | 
CCCCCCCCCCCCCCC(O)C(O)C(CO)NC(=O)CCCO (centres unmarked) [Example 1, 4-Hydroxybutyroyl phytosphingosine] |  | increased markedly
